PubChem BioAssay AID1259254, NCATS, 2017
This is one part, drawn at random, of about 59,000 reagents tested. About 1,550 of them (2.6%) were called active. 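G2 share is only a proxy for re-replication; each gene was hit by three separate siRNAs, and active genes were retested.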 Reagents against one gene are numbered here. Further read-outs or replicates are left out here. Not stated in the record: the amount of reagent.

Assay: 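Finding genes that stop cells copying their DNA twice in one cycle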 (primary screen)
Cell system: human HCT116 colorectal cancer cells
Knock-down reagent: single siRNA against human genes
Duration: 3 days
Detection: 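Imaged Hoechst DNA stain sorts each cell into a cycle phase by DNA amount; per plate, G2 fraction set to 0% for non-targeting and 100% for GMNN siRNA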
Reading the numbers: G2 robust z-score: higher = more G2 cells, more excess DNA replication
Call rule: 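An siRNA counts as active if its G2 robust z-score lies at least 5 MADs above the screen median; here such calls match roughly 38% of GMNN control or more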

| G2 robust z-score | outcome | Target gene | reagent |
| --- | --- | --- | --- |
| 1.67 | inactive | NR5A1 | 1 |
| -0.135 | inactive | NR5A1 | 2 |
| 0.361 | inactive | NR5A1 | 3 |
| -0.9 | inactive | HPCA | 1 |
| -0.364 | inactive | HPCA | 2 |
| -0.0638 | inactive | HPCA | 3 |
| 0.991 | inactive | CCDC22 | 1 |
| -0.508 | inactive | CCDC22 | 2 |
| 0.78 | inactive | CCDC22 | 3 |
| 2.97 | inactive | DOT1L | 1 |
| -0.243 | inactive | DOT1L | 2 |
| 2.26 | inactive | DOT1L | 3 |
| 0.12 | inactive | MSH4 | 1 |
| -0.5 | inactive | MSH4 | 2 |
| -0.871 | inactive | MSH4 | 3 |
| -0.716 | inactive | RNF213 | 1 |
| -0.524 | inactive | RNF213 | 2 |
| -0.393 | inactive | RNF213 | 3 |
| 1.1 | inactive | RNF213 | 4 |
| 2.92 | inactive | RNF213 | 5 |
| 0.613 | inactive | RNF213 | 6 |
| -0.412 | inactive | IARS2P1 | 1 |
| -0.194 | inactive | IARS2P1 | 2 |
| -0.189 | inactive | IARS2P1 | 3 |
| 7.27 | active | ITGA5 | 1 |
| 0.0326 | inactive | ITGA5 | 2 |
| -0.182 | inactive | ITGA5 | 3 |
| -0.268 | inactive | ZNF345 | 1 |
| -0.179 | inactive | ZNF345 | 2 |
| 1.73 | inactive | ZNF345 | 3 |

Hits, of those listed so far:
| G2 robust z-score | outcome | Target gene | reagent |
| --- | --- | --- | --- |
| 7.27 | active | ITGA5 | 1 |
